No constants are given. Whether binding was seen depends on the method and setting. Some binding calls cover weakened binding; strength is not graded here. For some assays here: Where a sequence is shown, tags or fusion partners need not be part of it.
What was measured:
TetR fusion of DOT1L = TetR fusion of DOT1L (UniProt Q8TEK3); assay: TetR recruitment to a TetO array, ChIP-qPCR; mouse ES cells with a TetO array stably expressing FS2-TetR fusion proteins; ChIP-qPCR for endogenous proteins at the TetO array; negative control 1 µg/ml doxycycline for 6 h
TetR fusion of ENL = molecular target: T1, TetR fusion of ENL (UniProt Q03111); assay: as above
T1 sequence: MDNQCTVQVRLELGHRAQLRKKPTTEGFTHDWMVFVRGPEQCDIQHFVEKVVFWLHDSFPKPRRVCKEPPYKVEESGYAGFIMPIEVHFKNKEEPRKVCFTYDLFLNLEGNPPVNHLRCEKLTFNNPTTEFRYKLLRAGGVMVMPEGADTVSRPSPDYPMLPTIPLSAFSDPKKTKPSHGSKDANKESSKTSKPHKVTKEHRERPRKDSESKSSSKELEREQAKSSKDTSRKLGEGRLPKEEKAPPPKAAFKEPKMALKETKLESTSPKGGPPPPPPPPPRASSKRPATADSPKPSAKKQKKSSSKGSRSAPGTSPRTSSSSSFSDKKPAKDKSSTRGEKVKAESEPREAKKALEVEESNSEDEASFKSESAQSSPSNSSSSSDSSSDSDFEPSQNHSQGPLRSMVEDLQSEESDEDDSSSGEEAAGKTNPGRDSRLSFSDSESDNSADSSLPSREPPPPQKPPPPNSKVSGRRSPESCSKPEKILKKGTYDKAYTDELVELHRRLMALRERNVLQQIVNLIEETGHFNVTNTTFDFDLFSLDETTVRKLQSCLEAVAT

The chains behind the UniProt entries cited, without tags or fusion partners. Where a name states a change or a piece, a line headed by the entry shows the natural chain unless it says otherwise.
UniProt Q8TEK3: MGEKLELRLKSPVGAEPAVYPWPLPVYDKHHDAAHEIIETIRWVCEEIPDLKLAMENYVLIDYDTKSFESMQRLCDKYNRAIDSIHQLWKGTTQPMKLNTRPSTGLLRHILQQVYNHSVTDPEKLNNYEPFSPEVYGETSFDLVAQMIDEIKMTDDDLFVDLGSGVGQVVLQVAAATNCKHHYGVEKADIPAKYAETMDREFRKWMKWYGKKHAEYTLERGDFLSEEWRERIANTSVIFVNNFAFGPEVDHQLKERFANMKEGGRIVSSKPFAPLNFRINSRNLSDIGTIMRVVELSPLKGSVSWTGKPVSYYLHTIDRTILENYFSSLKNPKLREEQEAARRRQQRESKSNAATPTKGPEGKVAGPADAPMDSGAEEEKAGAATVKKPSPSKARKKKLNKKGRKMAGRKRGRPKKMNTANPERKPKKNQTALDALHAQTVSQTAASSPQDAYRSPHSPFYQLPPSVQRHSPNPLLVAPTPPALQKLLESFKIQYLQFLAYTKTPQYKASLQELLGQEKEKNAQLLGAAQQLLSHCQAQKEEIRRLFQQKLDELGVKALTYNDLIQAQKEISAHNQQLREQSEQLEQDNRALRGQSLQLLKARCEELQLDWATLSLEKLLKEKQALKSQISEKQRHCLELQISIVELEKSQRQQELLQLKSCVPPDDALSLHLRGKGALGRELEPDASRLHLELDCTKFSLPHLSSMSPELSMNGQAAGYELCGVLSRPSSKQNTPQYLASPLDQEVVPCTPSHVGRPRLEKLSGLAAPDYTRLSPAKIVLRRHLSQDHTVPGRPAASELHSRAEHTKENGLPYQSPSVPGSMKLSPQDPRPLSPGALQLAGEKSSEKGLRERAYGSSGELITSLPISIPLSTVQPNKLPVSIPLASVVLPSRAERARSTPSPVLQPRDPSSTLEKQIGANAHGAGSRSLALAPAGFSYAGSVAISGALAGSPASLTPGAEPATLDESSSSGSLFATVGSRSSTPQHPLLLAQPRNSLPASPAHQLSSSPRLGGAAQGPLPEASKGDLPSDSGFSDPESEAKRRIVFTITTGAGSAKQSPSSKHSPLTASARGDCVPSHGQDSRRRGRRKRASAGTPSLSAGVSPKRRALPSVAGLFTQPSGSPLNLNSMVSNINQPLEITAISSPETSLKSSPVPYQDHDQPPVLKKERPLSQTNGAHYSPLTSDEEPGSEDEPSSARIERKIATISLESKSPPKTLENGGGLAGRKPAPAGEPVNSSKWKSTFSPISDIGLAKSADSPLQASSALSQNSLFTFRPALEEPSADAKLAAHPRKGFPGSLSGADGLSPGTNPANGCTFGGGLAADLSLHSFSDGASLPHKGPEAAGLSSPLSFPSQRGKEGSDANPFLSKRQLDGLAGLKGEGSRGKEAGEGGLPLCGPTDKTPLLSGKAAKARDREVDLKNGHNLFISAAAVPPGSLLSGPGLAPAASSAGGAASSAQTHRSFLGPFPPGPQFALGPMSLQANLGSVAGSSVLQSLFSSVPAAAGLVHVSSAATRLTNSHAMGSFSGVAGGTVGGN
UniProt Q08943: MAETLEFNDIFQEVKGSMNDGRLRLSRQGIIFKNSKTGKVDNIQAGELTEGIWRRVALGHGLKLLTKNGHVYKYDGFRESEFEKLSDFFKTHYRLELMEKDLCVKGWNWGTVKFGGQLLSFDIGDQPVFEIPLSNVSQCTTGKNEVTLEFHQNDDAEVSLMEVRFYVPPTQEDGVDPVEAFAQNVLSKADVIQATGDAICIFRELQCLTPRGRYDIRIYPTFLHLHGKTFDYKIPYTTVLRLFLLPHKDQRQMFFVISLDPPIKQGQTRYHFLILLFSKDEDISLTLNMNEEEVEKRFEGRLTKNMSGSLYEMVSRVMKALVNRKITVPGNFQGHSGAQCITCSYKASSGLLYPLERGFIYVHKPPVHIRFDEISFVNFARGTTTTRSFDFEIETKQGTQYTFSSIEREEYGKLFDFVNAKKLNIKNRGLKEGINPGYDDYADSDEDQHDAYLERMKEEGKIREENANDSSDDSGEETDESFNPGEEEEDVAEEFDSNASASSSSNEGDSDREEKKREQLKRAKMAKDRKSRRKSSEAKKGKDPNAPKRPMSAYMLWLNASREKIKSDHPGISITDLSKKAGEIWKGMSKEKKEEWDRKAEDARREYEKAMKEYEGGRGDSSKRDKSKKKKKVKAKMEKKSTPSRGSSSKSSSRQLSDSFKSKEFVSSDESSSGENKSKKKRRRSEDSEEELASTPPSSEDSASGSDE

## FACT, endogenous in mouse ES cells, detected through Ssrp1 (from UniProt Q08943 1-708; Q920B9 1-1047) (complex)
TetR fusion of DOT1L
  binding: binds
TetR fusion of ENL
  binding: binds

From publication PMC10457349
